These are yes or no findings as the source states them, for the method shown. Some entries that bind do so weakly or less than the wild type.
Target: T1, cow brain ferritin L subunit (cow (endogenous in brain)) (UniProt O46415)
T1 sequence: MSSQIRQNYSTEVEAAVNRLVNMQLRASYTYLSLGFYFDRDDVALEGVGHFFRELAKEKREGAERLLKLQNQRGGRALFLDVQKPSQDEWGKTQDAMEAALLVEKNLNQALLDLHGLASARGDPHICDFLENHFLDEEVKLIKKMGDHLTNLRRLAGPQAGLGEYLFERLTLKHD
Assay: native gel or EMSA; 7% native PAGE, Coomassie stained, of purified ferritin whose H and L subunits assembled in the cells (E. coli co-expression or animal organ); subunits shown by 12% SDS-PAGE, SDS-CGE and Western blot

The chains behind the UniProt entries cited, without tags or fusion partners.
UniProt O46414: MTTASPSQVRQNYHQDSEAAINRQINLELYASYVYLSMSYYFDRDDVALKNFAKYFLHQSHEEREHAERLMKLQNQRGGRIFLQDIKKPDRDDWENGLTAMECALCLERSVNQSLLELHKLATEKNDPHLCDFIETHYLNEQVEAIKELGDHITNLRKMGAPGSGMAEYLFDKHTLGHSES

Substance: cow brain ferritin H subunit (from UniProt O46414 1-181)
- binding: binds

Reference: publication PMC10646083
